In brackets after ≈: the same amount, converted by molar mass.
Tests used:
[1] = test system: Colorectal carcinoma cells (HCT-116); assay: MTT cell viability assay, HCT-116; type: cell-based; details: Homo sapiens, HCT-116, 24 h
[2] = test system: Non-malignant Chang’s liver cells; assay: MTT cell viability assay, Chang's liver cells; type: cell-based
Protocol: (§1) Non-malignant Chang’s liver (ATCC® CCL-13), human hepatocellular carcinoma (HepG2) (ATCC® HB-8065™), cervical adenocarcinoma (HeLa) (ATCC® CCL-2™) and human breast adenocarcinoma (MCF-7) (ATCC® HTB-22™) cell lines were maintained in Eagle’s minimum essential medium (ATCC® 30-2003™), respectively (Sigma Aldrich, St Louis, MO, USA). Human colorectal carcinoma (HCT-116) cell lines (ATCC® CCL-247™) were cultured in McCoy’s 5A (ATCC® 30-2007™). […] When the cells reached 70–80% confluency, the cells were detached with phosphate buffer saline (Sigma Aldrich, St Louis, MO, USA), trypsinized with 3 mL of trypsin-EDTA (Nacalai Tesque, Kyoto, Japan) and either seeded in a 96-well plate or sub-cultured.
(§2) The 3-(4,5-dimethylthiazol-2-yl)-2,5-diphenyltetrazolium bromide (MTT) assay is a mitochondrial-based cytotoxic test on cell viability. […] All experiments were conducted in triplicate.

[3] = test system: Breast adenocarcinoma cells (MCF-7); assay: MTT cell viability assay, MCF-7; type: cell-based; details: Homo sapiens, MCF7
Protocol: as §1, §2

[4] = test system: Hepatocellular carcinoma (HepG2); assay: MTT cell viability assay, HepG2; type: cell-based; details: Homo sapiens
Protocol: as §1, §2

[5] = test system: Cervical adenocarcinoma cells (HeLa); assay: MTT cell viability assay, HeLa; type: cell-based; details: Homo sapiens
[6] = test system: Primary mammary epithelial cells (PMECs); assay: MTT cell viability assay, PMECs; type: cell-based; details: Homo sapiens
Protocol: All experiments were conducted in triplicate.

[7] = test system: all the tested cell lines; assay: cells; details: read-out: IC50 values among all the tested cell lines

Compound: CC/C(=C(\c1ccccc1)c1ccc(OCCN(C)C)cc1)c1ccccc1 [TAM, tamoxifen]
- IC50 [1]: 9 µg/mL (≈ 24.2 µM)
- IC50 ([2]; 24 h): 4 µg/mL (≈ 10.8 µM)
- IC50 ([2]; 48 h): 6 µg/mL (≈ 16.1 µM)
- IC50 ([2]; 72 h): 3 µg/mL (≈ 8.07 µM)
- IC50 ([3]; MCF-7, 24 h): 15.5 µg/mL (≈ 41.7 µM)
- IC50 ([3]; MCF-7, 48 h): 7.5 µg/mL (≈ 20.2 µM)
- IC50 ([3]; MCF-7, 72 h): 8 µg/mL (≈ 21.5 µM)
- IC50 ([4]; HepG2, 24 h): 7 µg/mL (≈ 18.8 µM)
- IC50 ([4]; HepG2, 48 h): 4 µg/mL (≈ 10.8 µM)
- IC50 ([4]; HepG2, 72 h): 3 µg/mL (≈ 8.07 µM)
- IC50 ([5]; 48 h): 3.5 µg/mL (≈ 9.42 µM)
- IC50 ([5]; 72 h): 3 µg/mL (≈ 8.07 µM)
- IC50 ([6]; 24 h): 4 µg/mL (≈ 10.8 µM)
- IC50 ([6]; 48 h): 4 µg/mL (≈ 10.8 µM)
- IC50 ([6]; 72 h): 3 µg/mL (≈ 8.07 µM)
- IC50 [7]: 3 to 15.5 µg/mL (≈ 8.07 to 41.7 µM)

Reference: article PMC7601446, “Significant Decreased Expressions of CaN, VEGF, SLC39A6 and SFRP1 in MDA-MB-231 Xenograft Breast Tumor Mice Treated with Moringa oleifera Leaves and Seed Residue (MOLSr) Extracts” (Nutrients, 2020)
